These are yes or no findings as the source states them, for the method shown. In cells and extracts the contact can be indirect. Some entries that bind do so weakly or less than the wild type.
Molecular target: bacterially expressed full-length His-tagged KLF4 (UniProt Q60793)
Experiment: pull-down; His-KLF4 immobilised on metal-affinity resin; GRIP1 derivatives and SRC1 in vitro transcribed and translated with [35S]-methionine; autoradiography of bound material; only the target purified

By UniProt entry, the sequences of proteins in these tests, tags left out. Where a name states a change or a piece, a line headed by the entry shows the natural chain unless it says otherwise.
UniProt Q60793: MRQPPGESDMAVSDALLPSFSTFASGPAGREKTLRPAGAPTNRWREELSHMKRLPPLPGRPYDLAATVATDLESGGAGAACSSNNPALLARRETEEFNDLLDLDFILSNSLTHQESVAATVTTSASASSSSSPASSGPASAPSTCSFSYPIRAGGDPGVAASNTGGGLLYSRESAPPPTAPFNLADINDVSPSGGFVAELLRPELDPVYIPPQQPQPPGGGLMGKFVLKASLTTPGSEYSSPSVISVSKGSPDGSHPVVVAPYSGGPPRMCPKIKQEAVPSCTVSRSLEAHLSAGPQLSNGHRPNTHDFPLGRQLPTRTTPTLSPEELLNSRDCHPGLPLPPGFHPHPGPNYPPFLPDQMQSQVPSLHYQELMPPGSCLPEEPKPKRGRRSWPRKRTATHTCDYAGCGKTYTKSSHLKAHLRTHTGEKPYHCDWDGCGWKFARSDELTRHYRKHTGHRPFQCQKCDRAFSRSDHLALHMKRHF
UniProt Q61026: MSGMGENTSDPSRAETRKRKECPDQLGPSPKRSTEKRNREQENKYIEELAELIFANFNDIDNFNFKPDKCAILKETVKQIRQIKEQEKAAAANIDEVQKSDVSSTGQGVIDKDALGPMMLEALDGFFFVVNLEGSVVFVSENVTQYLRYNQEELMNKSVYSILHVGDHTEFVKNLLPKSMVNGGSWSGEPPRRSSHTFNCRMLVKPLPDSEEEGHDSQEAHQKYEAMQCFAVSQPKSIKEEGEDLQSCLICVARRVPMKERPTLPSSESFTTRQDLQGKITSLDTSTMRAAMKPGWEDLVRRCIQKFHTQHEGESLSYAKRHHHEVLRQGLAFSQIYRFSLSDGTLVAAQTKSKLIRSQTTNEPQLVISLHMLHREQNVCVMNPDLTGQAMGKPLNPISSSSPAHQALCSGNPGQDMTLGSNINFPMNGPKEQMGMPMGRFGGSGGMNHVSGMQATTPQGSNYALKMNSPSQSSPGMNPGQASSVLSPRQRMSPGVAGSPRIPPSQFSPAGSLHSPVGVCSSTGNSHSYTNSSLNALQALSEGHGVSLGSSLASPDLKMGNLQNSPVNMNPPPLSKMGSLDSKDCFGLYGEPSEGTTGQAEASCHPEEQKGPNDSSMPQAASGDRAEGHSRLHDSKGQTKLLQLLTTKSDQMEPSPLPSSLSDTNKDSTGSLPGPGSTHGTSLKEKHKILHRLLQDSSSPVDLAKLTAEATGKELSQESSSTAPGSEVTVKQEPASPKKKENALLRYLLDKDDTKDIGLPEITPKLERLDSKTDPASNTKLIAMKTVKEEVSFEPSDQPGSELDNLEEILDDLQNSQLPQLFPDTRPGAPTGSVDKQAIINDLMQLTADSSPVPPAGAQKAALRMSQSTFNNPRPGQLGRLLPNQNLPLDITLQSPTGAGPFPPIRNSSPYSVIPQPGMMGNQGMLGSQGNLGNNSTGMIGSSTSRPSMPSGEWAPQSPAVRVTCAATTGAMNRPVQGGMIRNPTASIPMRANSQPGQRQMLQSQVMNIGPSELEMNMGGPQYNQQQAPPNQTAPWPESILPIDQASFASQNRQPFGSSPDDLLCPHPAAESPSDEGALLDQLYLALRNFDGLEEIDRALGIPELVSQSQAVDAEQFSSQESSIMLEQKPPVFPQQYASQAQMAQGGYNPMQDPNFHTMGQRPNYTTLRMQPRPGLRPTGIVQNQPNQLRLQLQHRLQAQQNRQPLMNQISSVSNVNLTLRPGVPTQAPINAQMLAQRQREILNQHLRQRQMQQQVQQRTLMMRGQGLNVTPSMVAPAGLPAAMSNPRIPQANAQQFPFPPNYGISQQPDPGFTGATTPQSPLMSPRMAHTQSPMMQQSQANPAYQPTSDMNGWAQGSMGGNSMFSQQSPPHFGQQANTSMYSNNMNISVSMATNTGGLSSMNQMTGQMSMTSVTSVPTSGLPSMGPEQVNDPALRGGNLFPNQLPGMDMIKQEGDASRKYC
UniProt Q15788: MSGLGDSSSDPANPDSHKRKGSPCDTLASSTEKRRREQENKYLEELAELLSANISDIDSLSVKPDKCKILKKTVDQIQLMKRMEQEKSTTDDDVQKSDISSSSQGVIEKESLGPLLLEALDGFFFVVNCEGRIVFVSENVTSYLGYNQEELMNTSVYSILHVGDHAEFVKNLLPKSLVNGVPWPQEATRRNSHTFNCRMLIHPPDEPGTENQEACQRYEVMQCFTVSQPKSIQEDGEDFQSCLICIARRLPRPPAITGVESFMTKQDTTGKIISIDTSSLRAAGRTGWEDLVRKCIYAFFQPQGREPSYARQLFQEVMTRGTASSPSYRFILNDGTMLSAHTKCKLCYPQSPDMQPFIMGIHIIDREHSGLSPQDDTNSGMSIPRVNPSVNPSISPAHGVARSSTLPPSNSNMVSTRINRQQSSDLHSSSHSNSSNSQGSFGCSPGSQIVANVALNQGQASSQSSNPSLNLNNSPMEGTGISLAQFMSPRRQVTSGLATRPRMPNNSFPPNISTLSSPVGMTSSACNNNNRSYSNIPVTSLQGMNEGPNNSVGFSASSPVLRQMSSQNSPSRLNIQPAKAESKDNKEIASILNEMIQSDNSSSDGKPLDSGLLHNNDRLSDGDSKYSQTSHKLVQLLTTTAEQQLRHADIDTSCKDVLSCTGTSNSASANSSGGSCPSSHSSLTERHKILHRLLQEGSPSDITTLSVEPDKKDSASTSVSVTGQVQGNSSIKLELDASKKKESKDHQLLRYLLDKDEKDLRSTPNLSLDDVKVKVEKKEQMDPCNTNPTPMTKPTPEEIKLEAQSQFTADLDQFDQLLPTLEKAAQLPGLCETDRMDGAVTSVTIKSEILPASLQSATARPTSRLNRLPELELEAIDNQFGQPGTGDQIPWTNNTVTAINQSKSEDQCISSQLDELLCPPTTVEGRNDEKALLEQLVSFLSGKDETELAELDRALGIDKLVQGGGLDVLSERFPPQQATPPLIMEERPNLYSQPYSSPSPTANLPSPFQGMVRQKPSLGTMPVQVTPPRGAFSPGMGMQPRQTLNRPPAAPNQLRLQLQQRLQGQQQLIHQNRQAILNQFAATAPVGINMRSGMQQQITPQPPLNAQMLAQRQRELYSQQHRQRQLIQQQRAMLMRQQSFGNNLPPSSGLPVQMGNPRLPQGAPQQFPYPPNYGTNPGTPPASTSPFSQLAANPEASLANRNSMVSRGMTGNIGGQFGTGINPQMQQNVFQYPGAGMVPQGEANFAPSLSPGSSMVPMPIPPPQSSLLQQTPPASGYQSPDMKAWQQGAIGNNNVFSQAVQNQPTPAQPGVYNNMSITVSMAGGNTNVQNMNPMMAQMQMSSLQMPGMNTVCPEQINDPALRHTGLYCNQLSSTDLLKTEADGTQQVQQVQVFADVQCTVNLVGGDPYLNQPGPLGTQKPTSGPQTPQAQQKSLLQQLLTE

Row | Substance | binding
1 | GRIP1 N1007 truncation mutant, in vitro transcribed and translated (from UniProt Q61026 1-1007) (domain or fragment) | binds
2 | GRIP1 N765 truncation mutant, in vitro transcribed and translated (from UniProt Q61026 1-765) (domain or fragment) | binds
3 | GRIP1 765C truncation mutant, in vitro transcribed and translated (from UniProt Q61026 765-1462) (domain or fragment) | no binding
4 | full-length SRC1, in vitro transcribed and translated (from UniProt Q15788 1-1441) | no binding

— publication PMC4974480
